Reference: the supplement of paper PMC7666118
The list shows a part of the results.

Protein sequences, listed by entry. Tags and fused reporters are not part of them. Lines headed by an entry give the natural chain unless they say otherwise; changes in a name come on top.
UniProt O95071: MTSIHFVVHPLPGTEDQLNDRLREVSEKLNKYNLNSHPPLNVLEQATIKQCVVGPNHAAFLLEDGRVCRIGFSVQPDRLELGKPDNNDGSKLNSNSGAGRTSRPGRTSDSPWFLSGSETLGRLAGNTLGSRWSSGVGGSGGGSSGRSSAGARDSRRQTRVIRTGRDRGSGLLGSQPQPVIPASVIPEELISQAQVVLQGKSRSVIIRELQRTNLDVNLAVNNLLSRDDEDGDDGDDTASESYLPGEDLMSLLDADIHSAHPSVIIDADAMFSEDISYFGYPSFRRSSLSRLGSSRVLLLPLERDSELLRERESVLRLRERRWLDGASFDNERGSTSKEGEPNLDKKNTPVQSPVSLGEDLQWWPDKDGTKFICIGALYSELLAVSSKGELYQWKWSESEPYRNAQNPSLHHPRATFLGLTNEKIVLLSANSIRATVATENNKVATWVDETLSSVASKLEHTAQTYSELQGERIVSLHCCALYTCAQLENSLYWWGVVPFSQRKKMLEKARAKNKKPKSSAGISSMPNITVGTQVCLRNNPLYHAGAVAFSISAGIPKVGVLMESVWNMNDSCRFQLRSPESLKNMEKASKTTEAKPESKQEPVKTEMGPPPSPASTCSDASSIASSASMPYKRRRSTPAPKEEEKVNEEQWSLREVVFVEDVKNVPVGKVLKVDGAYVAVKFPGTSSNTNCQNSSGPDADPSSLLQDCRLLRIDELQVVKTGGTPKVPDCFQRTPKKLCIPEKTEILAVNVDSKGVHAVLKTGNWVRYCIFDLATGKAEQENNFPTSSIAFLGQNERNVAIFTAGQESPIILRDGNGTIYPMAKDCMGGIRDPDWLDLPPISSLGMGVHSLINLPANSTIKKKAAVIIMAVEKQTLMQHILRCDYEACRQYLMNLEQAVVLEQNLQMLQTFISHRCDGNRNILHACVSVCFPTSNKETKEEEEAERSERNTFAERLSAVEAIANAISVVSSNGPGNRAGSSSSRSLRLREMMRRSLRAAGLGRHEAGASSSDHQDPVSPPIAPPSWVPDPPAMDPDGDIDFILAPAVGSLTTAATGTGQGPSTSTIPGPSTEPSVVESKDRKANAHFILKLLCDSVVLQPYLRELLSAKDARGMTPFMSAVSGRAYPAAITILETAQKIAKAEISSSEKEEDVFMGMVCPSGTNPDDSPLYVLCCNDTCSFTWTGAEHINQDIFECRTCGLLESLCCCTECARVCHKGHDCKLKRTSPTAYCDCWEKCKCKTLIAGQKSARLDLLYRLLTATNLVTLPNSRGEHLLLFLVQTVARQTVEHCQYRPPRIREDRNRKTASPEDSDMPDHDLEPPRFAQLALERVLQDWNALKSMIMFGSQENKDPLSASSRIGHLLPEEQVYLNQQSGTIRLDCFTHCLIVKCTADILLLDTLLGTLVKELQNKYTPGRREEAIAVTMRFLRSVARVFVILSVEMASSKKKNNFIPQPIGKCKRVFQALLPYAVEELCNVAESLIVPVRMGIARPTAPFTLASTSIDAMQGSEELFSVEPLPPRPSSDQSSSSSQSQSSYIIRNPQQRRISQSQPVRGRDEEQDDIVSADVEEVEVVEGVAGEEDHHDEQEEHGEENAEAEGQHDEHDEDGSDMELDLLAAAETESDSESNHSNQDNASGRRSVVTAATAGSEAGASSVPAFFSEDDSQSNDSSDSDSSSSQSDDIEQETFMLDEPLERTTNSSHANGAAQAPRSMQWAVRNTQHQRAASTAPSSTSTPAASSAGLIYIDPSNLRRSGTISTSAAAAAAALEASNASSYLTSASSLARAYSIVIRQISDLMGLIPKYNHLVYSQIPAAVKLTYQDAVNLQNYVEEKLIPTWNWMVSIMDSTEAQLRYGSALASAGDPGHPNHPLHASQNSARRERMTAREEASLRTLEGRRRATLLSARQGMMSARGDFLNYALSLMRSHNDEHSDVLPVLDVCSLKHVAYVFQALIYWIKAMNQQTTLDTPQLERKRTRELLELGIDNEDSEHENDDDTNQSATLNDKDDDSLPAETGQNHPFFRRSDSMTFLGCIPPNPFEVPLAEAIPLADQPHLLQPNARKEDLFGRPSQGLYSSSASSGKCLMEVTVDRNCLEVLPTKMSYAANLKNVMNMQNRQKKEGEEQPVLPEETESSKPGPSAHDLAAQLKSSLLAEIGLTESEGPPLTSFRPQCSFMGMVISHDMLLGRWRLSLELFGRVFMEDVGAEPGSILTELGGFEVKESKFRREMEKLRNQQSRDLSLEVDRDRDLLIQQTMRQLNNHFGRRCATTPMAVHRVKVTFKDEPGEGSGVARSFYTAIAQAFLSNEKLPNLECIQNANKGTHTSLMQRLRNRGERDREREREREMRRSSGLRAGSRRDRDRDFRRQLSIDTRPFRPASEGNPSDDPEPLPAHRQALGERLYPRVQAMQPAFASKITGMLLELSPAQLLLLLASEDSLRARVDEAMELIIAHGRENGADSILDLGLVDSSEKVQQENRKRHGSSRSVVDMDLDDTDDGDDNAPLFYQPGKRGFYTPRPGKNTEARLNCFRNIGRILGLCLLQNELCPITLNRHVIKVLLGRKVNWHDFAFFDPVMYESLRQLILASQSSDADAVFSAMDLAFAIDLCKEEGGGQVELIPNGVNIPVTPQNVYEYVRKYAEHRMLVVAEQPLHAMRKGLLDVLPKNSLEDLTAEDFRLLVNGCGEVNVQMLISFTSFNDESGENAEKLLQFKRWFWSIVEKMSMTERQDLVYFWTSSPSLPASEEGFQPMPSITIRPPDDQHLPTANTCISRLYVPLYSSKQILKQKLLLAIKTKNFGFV
UniProt Q9BXX0: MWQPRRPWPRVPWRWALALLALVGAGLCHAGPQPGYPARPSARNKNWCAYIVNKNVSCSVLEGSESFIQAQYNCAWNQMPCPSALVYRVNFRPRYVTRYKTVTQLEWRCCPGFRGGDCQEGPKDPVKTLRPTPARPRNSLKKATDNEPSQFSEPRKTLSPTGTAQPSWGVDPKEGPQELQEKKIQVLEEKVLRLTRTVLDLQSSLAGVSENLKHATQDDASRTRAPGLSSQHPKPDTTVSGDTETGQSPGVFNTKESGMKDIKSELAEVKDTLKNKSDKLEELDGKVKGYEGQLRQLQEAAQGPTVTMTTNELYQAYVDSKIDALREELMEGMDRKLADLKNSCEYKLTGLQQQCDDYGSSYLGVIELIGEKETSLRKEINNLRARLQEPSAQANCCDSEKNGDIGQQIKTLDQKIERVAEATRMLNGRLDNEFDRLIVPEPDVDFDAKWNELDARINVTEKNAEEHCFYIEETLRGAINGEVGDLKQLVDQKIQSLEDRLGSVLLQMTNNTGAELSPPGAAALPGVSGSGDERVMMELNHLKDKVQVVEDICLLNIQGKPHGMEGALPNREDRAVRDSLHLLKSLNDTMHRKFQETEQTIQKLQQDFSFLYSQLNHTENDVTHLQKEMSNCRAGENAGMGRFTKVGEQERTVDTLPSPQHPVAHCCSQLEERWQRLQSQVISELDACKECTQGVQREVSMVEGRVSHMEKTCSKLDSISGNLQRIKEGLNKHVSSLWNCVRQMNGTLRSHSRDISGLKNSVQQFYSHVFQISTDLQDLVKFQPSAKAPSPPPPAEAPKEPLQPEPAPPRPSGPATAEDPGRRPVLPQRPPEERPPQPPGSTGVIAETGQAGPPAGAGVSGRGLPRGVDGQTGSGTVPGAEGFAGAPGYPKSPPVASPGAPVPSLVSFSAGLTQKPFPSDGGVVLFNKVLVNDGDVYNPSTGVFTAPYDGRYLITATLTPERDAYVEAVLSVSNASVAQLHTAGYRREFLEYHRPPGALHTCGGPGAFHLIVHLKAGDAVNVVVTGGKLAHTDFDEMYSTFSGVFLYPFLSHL
UniProt P78344: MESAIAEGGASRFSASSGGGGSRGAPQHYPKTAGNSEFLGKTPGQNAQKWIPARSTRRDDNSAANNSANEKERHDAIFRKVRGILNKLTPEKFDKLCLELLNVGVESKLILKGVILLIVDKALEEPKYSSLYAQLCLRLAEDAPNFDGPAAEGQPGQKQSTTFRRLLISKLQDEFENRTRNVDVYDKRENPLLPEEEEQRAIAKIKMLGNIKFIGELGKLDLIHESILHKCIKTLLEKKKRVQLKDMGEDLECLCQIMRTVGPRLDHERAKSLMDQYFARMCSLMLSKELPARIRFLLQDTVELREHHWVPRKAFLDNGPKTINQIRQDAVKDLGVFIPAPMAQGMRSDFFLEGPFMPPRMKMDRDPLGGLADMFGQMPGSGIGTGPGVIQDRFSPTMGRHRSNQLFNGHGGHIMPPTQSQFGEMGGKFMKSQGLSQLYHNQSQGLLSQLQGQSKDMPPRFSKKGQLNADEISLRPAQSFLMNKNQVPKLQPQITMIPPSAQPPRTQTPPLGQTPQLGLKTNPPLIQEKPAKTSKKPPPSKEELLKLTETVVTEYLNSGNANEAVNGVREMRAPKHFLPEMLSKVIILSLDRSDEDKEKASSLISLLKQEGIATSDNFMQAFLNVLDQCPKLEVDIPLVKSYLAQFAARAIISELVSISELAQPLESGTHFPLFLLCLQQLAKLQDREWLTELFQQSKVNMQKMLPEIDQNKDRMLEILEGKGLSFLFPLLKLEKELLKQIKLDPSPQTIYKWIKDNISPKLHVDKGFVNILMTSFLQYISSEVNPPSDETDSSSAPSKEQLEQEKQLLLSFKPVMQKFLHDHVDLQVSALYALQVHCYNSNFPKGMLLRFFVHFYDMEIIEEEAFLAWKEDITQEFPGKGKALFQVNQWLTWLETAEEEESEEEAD
UniProt Q6Y2X3: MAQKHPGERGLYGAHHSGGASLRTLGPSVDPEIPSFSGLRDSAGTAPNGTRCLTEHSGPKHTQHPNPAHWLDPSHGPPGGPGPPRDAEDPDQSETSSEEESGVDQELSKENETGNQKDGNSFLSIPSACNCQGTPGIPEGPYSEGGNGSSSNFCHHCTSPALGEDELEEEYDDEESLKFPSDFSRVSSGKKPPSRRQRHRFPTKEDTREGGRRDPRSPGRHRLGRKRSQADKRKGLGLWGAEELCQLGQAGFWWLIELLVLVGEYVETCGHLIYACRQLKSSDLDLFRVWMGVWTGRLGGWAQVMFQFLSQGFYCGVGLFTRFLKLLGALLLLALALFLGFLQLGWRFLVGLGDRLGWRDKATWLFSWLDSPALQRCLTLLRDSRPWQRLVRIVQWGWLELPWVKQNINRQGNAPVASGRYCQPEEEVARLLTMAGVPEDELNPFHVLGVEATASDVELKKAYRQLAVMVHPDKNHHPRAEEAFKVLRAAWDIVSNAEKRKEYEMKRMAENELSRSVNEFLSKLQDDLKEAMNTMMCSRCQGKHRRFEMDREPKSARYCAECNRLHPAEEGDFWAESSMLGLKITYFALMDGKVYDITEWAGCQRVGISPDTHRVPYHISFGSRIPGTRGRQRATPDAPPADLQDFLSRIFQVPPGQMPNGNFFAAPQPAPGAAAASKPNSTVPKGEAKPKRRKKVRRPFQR
UniProt Q99848: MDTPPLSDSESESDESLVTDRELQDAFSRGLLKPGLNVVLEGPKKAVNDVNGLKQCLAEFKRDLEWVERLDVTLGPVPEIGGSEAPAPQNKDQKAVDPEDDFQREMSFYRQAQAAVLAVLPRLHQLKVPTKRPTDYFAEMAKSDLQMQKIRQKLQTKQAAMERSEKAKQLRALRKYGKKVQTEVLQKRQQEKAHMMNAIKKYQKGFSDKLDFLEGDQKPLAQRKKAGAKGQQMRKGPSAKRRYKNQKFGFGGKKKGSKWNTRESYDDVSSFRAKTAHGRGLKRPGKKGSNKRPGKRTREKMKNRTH
UniProt Q9H4M9: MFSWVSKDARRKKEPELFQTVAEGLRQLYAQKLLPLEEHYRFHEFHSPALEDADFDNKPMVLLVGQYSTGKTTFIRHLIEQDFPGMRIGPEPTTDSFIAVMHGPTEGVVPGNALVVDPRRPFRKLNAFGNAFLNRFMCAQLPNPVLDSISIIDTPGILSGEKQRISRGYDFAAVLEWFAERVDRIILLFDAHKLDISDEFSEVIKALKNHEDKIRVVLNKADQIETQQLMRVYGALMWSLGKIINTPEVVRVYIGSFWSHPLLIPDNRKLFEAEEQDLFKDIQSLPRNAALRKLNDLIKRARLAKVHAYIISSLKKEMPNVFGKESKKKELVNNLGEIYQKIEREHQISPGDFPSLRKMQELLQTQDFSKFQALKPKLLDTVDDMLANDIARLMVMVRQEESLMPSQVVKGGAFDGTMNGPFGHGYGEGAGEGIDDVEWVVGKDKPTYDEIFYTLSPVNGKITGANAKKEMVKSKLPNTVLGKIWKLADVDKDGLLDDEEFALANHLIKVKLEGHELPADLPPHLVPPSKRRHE

Compound: COc1ccc(Cn2ccc3ccc(C(=O)NO)cc32)cc1
Experiment: dose-dependent thermal stabilisation call (2D-TPP, DLPTP, 10% FDR) (binary (1 = stabilised)); higher = stabilised by the compound
Details: system: HL-60 intact cells; concentration range 0.04-10 µM

Target | dose-dependent thermal stabilisation call
EDD1 (UniProt O95071) | inactive: 0
DNAJA2 (UniProt O60884) | inactive: 0
DSCR3 (UniProt O14972) | inactive: 0
ERAP2 (UniProt Q6P179) | inactive: 0
DUS1L (UniProt Q6P1R4) | inactive: 0
ELMO1 (UniProt Q92556) | inactive: 0
EED (UniProt O75530) | inactive: 0
EIF3H (UniProt O15372) | inactive: 0
EIF4EBP2 (UniProt Q13542) | inactive: 0
DNPEP (UniProt Q9ULA0) | inactive: 0
EMILIN2 (UniProt Q9BXX0) | inactive: 0
DOCK7 (UniProt Q96N67) | inactive: 0
DNM1 (UniProt Q05193) | inactive: 0
DLGAP4 (UniProt Q9Y2H0) | inactive: 0
DKFZP434B0335 | inactive: 0
DYRK1A (UniProt Q13627) | inactive: 0
DICER1 (UniProt Q9UPY3) | inactive: 0
EIF4G2 (UniProt P78344) | inactive: 0
DNAJC14 (UniProt Q6Y2X3) | inactive: 0
DNA2 (UniProt P51530) | inactive: 0
EBNA1BP2 (UniProt Q99848) | inactive: 0
ENPP4 (UniProt Q9Y6X5) | inactive: 0
ERGIC1 (UniProt Q969X5) | inactive: 0
DNASE2 (UniProt O00115) | inactive: 0
EHD1 (UniProt Q9H4M9) | inactive: 0
DNAJA1 (UniProt P31689) | inactive: 0
EAPP (UniProt Q56P03) | inactive: 0

Fetched one by one from the entries so far:
Target | dose-dependent thermal stabilisation call
DNASE2 (UniProt O00115) | inactive: 0
EMILIN2 (UniProt Q9BXX0) | inactive: 0
